Results published in patent publication US20170226560A1, “GOLD NANOPARTICLE-BASED HOMOGENEOUS COLORIMETRIC DIAGNOSTIC ASSAY FOR THE DETECTION OF PROTEASES AND PROTEASE INHIBITORS” (IMRA America, Inc., priority 2014, published 2017).
Ends that are not written are not given here.

What was measured:
[1] = Peptide substrate induced aggregation of colloidal gold nanoparticles (UV-VIS absorbance ratio, color); conditions: for induced aggregation of gold nanoparticles by intact peptide substrate: negatively charged gold nanoparticles 1 nM, average diameter 20 nm, 20° C., peptide 300 nM to 1000 nM
trypsin = assay: Colloidal gold nanoparticle-based colorimetric assay for trypsin (hydrolytic cleavage of peptide substrate); assay type: biochemical; conditions: 20° C., 20 nm gold nanoparticles
Description: Based on the design criteria for the peptide substrate mentioned above, a sequence of amino acids in the peptide substrate of SEQ ID NO: 1 Lys-Lys-Gly-Phe-Pro-Arg-Gly-Gly-Asp-Cys was used in an assay method patterned after FIG. 1a. Unless noted otherwise, all incubations and reactions reported in the present specification were conducted at 20° C. The final reaction volume in all experiments described in the present specification, unless noted otherwise, was 500 microliters and the gold nanoparticle concentration was 1 nM. […] Thus, in all of the described experiments the aggregation state of any gold nanoparticle solution could be measured after 30 minutes or less. […] All of these can be evaluated using the present inventive assay methods. […]
After confirming that the peptide substrate SEQ ID NO: 1 Lys-Lys-Gly-Phe-Pro-Arg-Gly-Gly-Asp-Cys did induce the aggregation of negative surface charged gold nanoparticles, we carried out another experiment of examining the ultraviolet-visible spectra of solutions of colloidal gold nanoparticles after they were added to solutions of peptide substrates that had been pre-exposed for different time periods of from 0 minutes (min) to 60 min to trypsin. […] The absorbance spectrum shifts back to a maximum at 520 nm±5 nm, non-aggregated nanoparticles, as the pre-exposure time increases. […]

Row | Substance | induced aggregation of gold nanoparticles by intact peptide substrate [1] | ratio of the absorbance at 650 nm/absorbance at 520 nm ([1]; 750 nM peptide substrate, no trypsin present, 20 nm gold nanoparticles) | limit of detection of trypsin (trypsin; 750 nM peptide substrate SEQ ID NO: 1, pre-exposure 60 minutes) | limit of detection of trypsin (trypsin; 750 nM peptide substrate SEQ ID NO: 1, pre-exposure 3 hours) [pM]
1 | CGFPRGGSDE [SEQ ID NO: 4, peptide substrate for trypsin] | no color change | – | – | –
2 | KKGFPRGGDC [SEQ ID NO: 1, peptide substrate cleaved by trypsin; intact peptide aggregates negatively charged gold nanoparticles] | did induce aggregation of gold nanoparticles | ~1 | – | –
3 | trypsin: pancreatic serine protease with molecular weight of 24 kDa; analyte of the assay [reference compound] | – | – | about 20 pM | 2 to 10
